Data source: PubChem BioAssay AID1259308 (NCATS, 2017)
Screen: 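Knock-downs that increase output of a recombinant reporter protein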 (primary screen). Cell system: human HEK293 embryonic kidney cells stably expressing firefly luciferase (HEK-CMV-Luc2-Hygro). Reagents: single siRNA against human genes, 0.8 pmol siRNA per well. Duration: 72 h. Measurement: 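Luciferase light (ONE-Glo) measured on one replicate plate set and viability (CellTiter-Glo) on the other, scaled to a negative control siRNA, with robust z-scores and luciferase per cell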. Scale: total luciferase, z-score: higher = more reporter protein produced. Hit rule: 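An siRNA counts as active if its total luciferase robust z-score exceeds 3; genes with two or more such siRNAs out of three were retested with fresh siRNAs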. Calls: active = raised luciferase; inactive = no rise.
In all, the deposit lists about 59,000 reagents; this is a random part of them. About 1,510 of them (2.6%) were called active. 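Calls use total luciferase alone and ignore viability, so some active siRNAs may act by altering cell number.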 Unmarked entries are inactive. Reagents against one gene are numbered here. Further read-outs or replicates are left out here.

Gene	siRNA no.	total luciferase, z-score
TRIP10	1	0.457
TRIP10	2	0.31
TRIP10	3	-0.625
FAM222A	1	-1.97
FAM222A	2	1.3
FAM222A	3	1.35
CCDC18	1	0.126
CCDC18	2	-0.629
CCDC18	3	-0.265
ZNF641	1	-0.527
ZNF641	2	-0.85
ZNF641	3	-1.33
OR8U1	1	-2.41
OR8U1	2	1.16
OR8U1	3	-0.453
ELOF1	1	-0.778
ELOF1	2	-1.19
ELOF1	3	0.689
CTSE	1	1.69
CTSE	2	4.12 (active)
CTSE	3	-0.215
IGFALS	1	-1.71
IGFALS	2	-0.962
IGFALS	3	0.437
ZNF436	1	-0.943
ZNF436	2	-1.67
ZNF436	3	0.746
SHISA4	1	0.275
SHISA4	2	-0.813
SHISA4	3	-1.72
NEIL3	1	-1.05
NEIL3	2	0.0256
NEIL3	3	-0.767
FGF19	1	-0.99
FGF19	2	0.239
FGF19	3	-0.176
LCN2	1	0.396
LCN2	2	-0.345
LCN2	3	-0.529
COPS7A	1	0.524
COPS7A	2	1.97
COPS7A	3	0.509
BCAP29	1	0.0893
BCAP29	2	0.154
BCAP29	3	1.42
GLYATL3	1	-2.23
GLYATL3	2	-0.391
GLYATL3	3	-0.922
FGF10	1	1.13
FGF10	2	-0.952
FGF10	3	-0.978
UBXN7	1	1.57
UBXN7	2	-0.126
UBXN7	3	0.764
MTR	1	-0.528
MTR	2	0.223
MTR	3	2.02
CLHC1	1	-0.246
CLHC1	2	-1.35
CLHC1	3	1.21
GKN2	1	-0.246
GKN2	2	-1.2
GKN2	3	-0.172
TOP6BL	1	0.512
TOP6BL	2	-0.785
TOP6BL	3	-0.882
ARL11	1	-1.67
ARL11	2	-0.232
ARL11	3	0.524
NUP37	1	-0.265
NUP37	2	-0.522
NUP37	3	-0.355
SRRD	1	0.959
SRRD	2	-0.959
SRRD	3	0.543

Entries listed above called active (1):
Gene	siRNA no.	total luciferase, z-score
CTSE	2	4.12 (active)
